Test results taken from publication PMC6321256.
Results are given in words; binding and its absence hold for the method and conditions named. For some assays here: Binding seen in cells or lysates may run through a third protein. Some entries that bind do so weakly or less than the wild type. For some assays here: Sequences can lack the tags named with a protein.

By UniProt entry, the sequences of proteins in these tests, tags left out. Residues count along the entry.
UniProt P32248, residues 25-378: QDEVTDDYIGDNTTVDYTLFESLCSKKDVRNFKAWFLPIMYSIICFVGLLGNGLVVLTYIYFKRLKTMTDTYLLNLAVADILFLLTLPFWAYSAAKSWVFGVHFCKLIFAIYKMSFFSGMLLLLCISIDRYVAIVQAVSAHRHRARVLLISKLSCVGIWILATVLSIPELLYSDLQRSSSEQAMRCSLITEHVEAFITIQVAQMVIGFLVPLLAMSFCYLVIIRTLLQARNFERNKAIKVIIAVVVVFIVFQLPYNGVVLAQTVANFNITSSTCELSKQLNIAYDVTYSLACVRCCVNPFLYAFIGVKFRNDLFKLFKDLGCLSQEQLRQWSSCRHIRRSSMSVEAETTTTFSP
UniProt O00585, residues 24-134: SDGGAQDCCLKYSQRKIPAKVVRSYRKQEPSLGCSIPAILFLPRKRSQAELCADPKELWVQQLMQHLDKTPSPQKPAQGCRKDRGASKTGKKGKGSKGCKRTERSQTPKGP
UniProt P32121: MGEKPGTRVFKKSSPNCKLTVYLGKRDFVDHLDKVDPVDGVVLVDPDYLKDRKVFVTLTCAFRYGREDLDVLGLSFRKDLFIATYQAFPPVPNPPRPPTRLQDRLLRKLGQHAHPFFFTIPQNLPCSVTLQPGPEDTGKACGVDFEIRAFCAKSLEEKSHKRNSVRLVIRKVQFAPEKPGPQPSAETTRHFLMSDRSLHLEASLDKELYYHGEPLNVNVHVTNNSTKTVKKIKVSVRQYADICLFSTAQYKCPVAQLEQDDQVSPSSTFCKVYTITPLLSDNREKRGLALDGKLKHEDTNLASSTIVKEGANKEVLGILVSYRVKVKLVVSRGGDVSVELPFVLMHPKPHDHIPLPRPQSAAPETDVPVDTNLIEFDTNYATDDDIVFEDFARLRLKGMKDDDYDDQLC

Tests used:
ACKR4-eGFP (human) = target: T1, ACKR4-eGFP (human) (UniProt Q9NPB9); assay: live-cell confocal time-lapse microscopy of fluorescent ligand on transfected cells; 100 nM chemokine-mRFP added to the medium of HEK293 cells transiently transfected with receptor-eGFP; medium with 20 mM HEPES pH 7.5, temperature-controlled chamber; untransfected cells in the same dish as control; only the binder purified
T1 sequence: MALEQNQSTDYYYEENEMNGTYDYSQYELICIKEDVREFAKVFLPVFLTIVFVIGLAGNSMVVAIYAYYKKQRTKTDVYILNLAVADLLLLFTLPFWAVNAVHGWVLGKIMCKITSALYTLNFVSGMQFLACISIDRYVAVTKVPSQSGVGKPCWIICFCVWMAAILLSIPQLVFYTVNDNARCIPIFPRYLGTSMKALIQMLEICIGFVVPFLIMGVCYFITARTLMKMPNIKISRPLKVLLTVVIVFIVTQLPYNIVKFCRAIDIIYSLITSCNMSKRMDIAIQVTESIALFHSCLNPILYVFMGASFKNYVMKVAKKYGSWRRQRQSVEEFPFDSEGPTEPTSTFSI

CCR7-EYFP = CCR7-EYFP (UniProt P32248); assay: FRET or BRET; BRET in HEK293 cells transiently transfected with CCR7-EYFP (or CCR7-HA as control) and β-arrestin2-hRLuc at 3:1; PBS with 5 mM glucose, 10 µM coelenterazine H, 37 °C; cells stimulated with 50 nM CCL19, CCL19-mRFP, CCL21 or CCL21-mRFP

CCL21-mRFP (from UniProt O00585 24-134) (ligand)
binding (ACKR4-eGFP (human)): binds

β-arrestin2-hRLuc (from UniProt P32121 1-409)
binding (CCR7-EYFP): binds
